{
  "sequences": {"note": "By UniProt entry, the sequences of proteins in these tests, tags left out.", "UniProt Q0JBA9, entry or part of it": "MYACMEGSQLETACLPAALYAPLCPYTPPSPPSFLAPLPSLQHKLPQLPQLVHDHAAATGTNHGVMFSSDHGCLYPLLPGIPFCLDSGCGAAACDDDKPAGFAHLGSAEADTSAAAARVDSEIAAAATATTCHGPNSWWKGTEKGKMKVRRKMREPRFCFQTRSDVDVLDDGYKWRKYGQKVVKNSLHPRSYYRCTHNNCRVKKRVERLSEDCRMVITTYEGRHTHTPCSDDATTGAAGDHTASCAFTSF"},
  "source": "paper PMC7819943",
  "about": "“Rice protein-binding microarrays: a tool to detect cis-acting elements near promoter regions in rice”",
  "note": "The list shows a part of the results.",
  "data": [
    {"molecular_target": "OsWRKY34 (Oryza sativa, UniProt Q0JBA9 1-250)", "test": "protein-binding microarray (RPBM); PBS, 2% BSA, 51.3 ng/ul salmon testes DNA, 50 uM zinc acetate, 200 nM TF, 25 C, 1 h; high values mean tight binding", "details": "protein: recombinant; tags: N-terminal polyhistidine and DsRed monomer fusion (pET32a); label: CyDye5-dUTP incorporated in the synthesized complementary strand; 3' TTTTT single-stranded linker to array surface; dsDNA, one strand shown", "how_it_was_run": "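In PBS with 2% BSA, salmon testes DNA and 50 µM zinc acetate, 200 nM protein was incubated on a custom Agilent array at 25 °C for 1 h and then washed off. The array had been made double-stranded by primer extension with Cy5-dUTP and blocked with 2% BSA. The proteins were transcription factors fused N-terminally to polyhistidine and DsRed, expressed in E. coli BL21-CodonPlus and purified on Ni–NTA. The binding signal is per-feature fluorescence intensity (arbitrary units) from an Axon 4000B scanner.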", "values": [
      {"sequence": "CTCTTCACCACTTAGTGCTTTTTAAATTTCATCCTTTTCACGGAGTCACCTAGTGCAG", "binding signal": "8140 fluorescence intensity (a.u.)"},
      {"sequence": "AGTTCATCTTGGTATCTTATGCTAGCTAGTCTTCCAAGCTCGGAGTCACCTAGTGCAG", "binding signal": "8940 fluorescence intensity (a.u.)"},
      {"sequence": "ACACAGCCACACACCAACATGCCCTTCAGGTCTTCACACTCGGAGTCACCTAGTGCAG", "binding signal": "9550 fluorescence intensity (a.u.)"},
      {"sequence": "AATGTGGGTATGCCAACCAAATAACCTCTAAGTTTGACCACGGAGTCACCTAGTGCAG", "binding signal": "8390 fluorescence intensity (a.u.)"},
      {"sequence": "GCTGTGTTTGTTTTGGGTGGTTGGGAACAAAACTCCTCCGCGGAGTCACCTAGTGCAG", "binding signal": "9070 fluorescence intensity (a.u.)"},
      {"sequence": "TCTTCTTCTTCTCCACGTCCCCGGCCTCTCTTCTCGCTCTCGGAGTCACCTAGTGCAG", "binding signal": "9870 fluorescence intensity (a.u.)"},
      {"sequence": "GCCAGCTGCCTCCTCCGATCTCTCTCTCACTCTCACACACCGGAGTCACCTAGTGCAG", "binding signal": "9690 fluorescence intensity (a.u.)"},
      {"sequence": "TAATGGAAGTGGTTTACGTCGCTTCTGTCAATAAACACACCGGAGTCACCTAGTGCAG", "binding signal": "48400 fluorescence intensity (a.u.)"},
      {"sequence": "CTCTCTCTTCAATCCTTCATCCTCTTCCTCAGGTGAGATGCGGAGTCACCTAGTGCAG", "binding signal": "8300 fluorescence intensity (a.u.)"},
      {"sequence": "CTCCCTGCATCGACATGGCCATACTCTCCAACATCTTCTACGGAGTCACCTAGTGCAG", "binding signal": "10800 fluorescence intensity (a.u.)"},
      {"sequence": "CTCAGTTCTTTCGCCGTGTTTAGTTACAAATTTTTTATTTCGGAGTCACCTAGTGCAG", "binding signal": "12700 fluorescence intensity (a.u.)"},
      {"sequence": "CGTACTATTAACGTGCAACTTTTTTGTCTTTGTACTACCTCGGAGTCACCTAGTGCAG", "binding signal": "9620 fluorescence intensity (a.u.)"},
      {"sequence": "AGACCACCTCGCTGCCTCTGCTCTGCTCAGTGCTGCTCACCGGAGTCACCTAGTGCAG", "binding signal": "8750 fluorescence intensity (a.u.)"},
      {"sequence": "GCCAATCGCTCCAATTCTCCCGCGCGCGCGCCACTGCCACCGGAGTCACCTAGTGCAG", "binding signal": "8130 fluorescence intensity (a.u.)"},
      {"sequence": "CTCGTTCATTTTCTGAATTCTACAACTACGTATTCTCAGACGGAGTCACCTAGTGCAG", "binding signal": "9250 fluorescence intensity (a.u.)"},
      {"sequence": "TGAGATGGCCCTGCCAACATATTCCAGCCCAGCTCAGTCCCGGAGTCACCTAGTGCAG", "binding signal": "8110 fluorescence intensity (a.u.)"},
      {"sequence": "TTGGCGCGATAGGGATTGGGGAGGCGTTGAGGTGGGGAGACGGAGTCACCTAGTGCAG", "binding signal": "12300 fluorescence intensity (a.u.)"},
      {"sequence": "TTGTTGATCATGATTTTCTTTTGGCTATTTGATTTTTTGACGGAGTCACCTAGTGCAG", "binding signal": "8160 fluorescence intensity (a.u.)"},
      {"sequence": "AGCTTGTTTATCATGTTTATCGTTTAAAGCTTGTTTTTCGCGGAGTCACCTAGTGCAG", "binding signal": "8790 fluorescence intensity (a.u.)"},
      {"sequence": "GGGCTTGTGAACCGGGAGGCGAGGGGAGGGTTATGAGAGTCGGAGTCACCTAGTGCAG", "binding signal": "13900 fluorescence intensity (a.u.)"},
      {"sequence": "TTGTGTGGTTGTATCTAGGCCCTTGTTCCACTGTACGTCTCGGAGTCACCTAGTGCAG", "binding signal": "11600 fluorescence intensity (a.u.)"},
      {"sequence": "CCTGGTCCCTCTTGTCTTGTTTGCATGGTTTGTTGAACGACGGAGTCACCTAGTGCAG", "binding signal": "8490 fluorescence intensity (a.u.)"},
      {"sequence": "AGATGTTTACCCGTCTCTTATCCAGGCAGTTCTACCTCGACGGAGTCACCTAGTGCAG", "binding signal": "8850 fluorescence intensity (a.u.)"},
      {"sequence": "GGGACCTAGGATGAACTTATTCCTTTCTGTTTCAACCATACGGAGTCACCTAGTGCAG", "binding signal": "8370 fluorescence intensity (a.u.)"},
      {"sequence": "AATGGTCAAATATGTGCTAAAAGTCAACGGCGTCAAACATCGGAGTCACCTAGTGCAG", "binding signal": "15700 fluorescence intensity (a.u.)"},
      {"sequence": "TTATACTTCTACCTTCTTCAGTAGTTCATCAATGTCGCGACGGAGTCACCTAGTGCAG", "binding signal": "8370 fluorescence intensity (a.u.)"},
      {"sequence": "CTTCTTTATTGCTCAGTTATAGATGTGCGCTCATTATTTGCGGAGTCACCTAGTGCAG", "binding signal": "8860 fluorescence intensity (a.u.)"},
      {"sequence": "AGCCACCTCTCTCTCTCCTATCGTTTTGACCACAGAAACCCGGAGTCACCTAGTGCAG", "binding signal": "9680 fluorescence intensity (a.u.)"},
      {"sequence": "CCGGCCCACGTCAGCCTGCCGCGCCTACCGTTGACTCTCCCGGAGTCACCTAGTGCAG", "binding signal": "11600 fluorescence intensity (a.u.)"},
      {"sequence": "AATGGCATGCACGTGCTTAATTAATTCCCATTTGCATGTTCGGAGTCACCTAGTGCAG", "binding signal": "8880 fluorescence intensity (a.u.)"},
      {"sequence": "CGCCGAACAATCCACTCCGCCCTTCATATGCGCGCACCGCCGGAGTCACCTAGTGCAG", "binding signal": "8410 fluorescence intensity (a.u.)"},
      {"sequence": "TCTTCGTCGACACCACCCCAGCCGGTGTCCCCACGCGCTCCGGAGTCACCTAGTGCAG", "binding signal": "10100 fluorescence intensity (a.u.)"},
      {"sequence": "TCCCCTCACGGTGGCGTGACATGCACCAATCTCGCCCCAACGGAGTCACCTAGTGCAG", "binding signal": "8820 fluorescence intensity (a.u.)"},
      {"sequence": "GTGGGGCCCACTGCTCGAGTGTCGGGGTATGGTCTCGGGTCGGAGTCACCTAGTGCAG", "binding signal": "9290 fluorescence intensity (a.u.)"},
      {"sequence": "TTACTCTCTTTAGTCACAAATATTTAACACGGTTGACTTTCGGAGTCACCTAGTGCAG", "binding signal": "8570 fluorescence intensity (a.u.)"},
      {"sequence": "TCTGTGGTAAGCATACCCATTAATTAATTTACGGCCACTTCGGAGTCACCTAGTGCAG", "binding signal": "8380 fluorescence intensity (a.u.)"},
      {"sequence": "ATCGCCATATAGGCGCCACGTGGAACGAAGACTCGGTCAACGGAGTCACCTAGTGCAG", "binding signal": "9350 fluorescence intensity (a.u.)"},
      {"sequence": "ATGGATGCGTGTGGGAGATGGGTTGGACTGGCAAATTAAACGGAGTCACCTAGTGCAG", "binding signal": "15100 fluorescence intensity (a.u.)"},
      {"sequence": "CCTTCCCGATCCGCCCGCCTCGCCTCGTCTCCCGCCCCACCGGAGTCACCTAGTGCAG", "binding signal": "9010 fluorescence intensity (a.u.)"},
      {"sequence": "GATGACGTTGTTAACTTTTTATCACACGTTTGACCATTCGCGGAGTCACCTAGTGCAG", "binding signal": "8510 fluorescence intensity (a.u.)"},
      {"sequence": "TCTTTATTTAGAAGATGCTTCCACCCTATATCACTCGAGTCGGAGTCACCTAGTGCAG", "binding signal": "8960 fluorescence intensity (a.u.)"},
      {"sequence": "TTTCACCCAAGCTTTCTTGCTTCCATGCTTTTTTCTTGTCCGGAGTCACCTAGTGCAG", "binding signal": "8230 fluorescence intensity (a.u.)"},
      {"sequence": "TCTCATCTCTAGTAGTACTAATAGACTTCCAACAACTTCCCGGAGTCACCTAGTGCAG", "binding signal": "8030 fluorescence intensity (a.u.)"},
      {"sequence": "TTCACCTTTCCTCGCTTCAATTTACTACCCTGTTCATTCACGGAGTCACCTAGTGCAG", "binding signal": "10200 fluorescence intensity (a.u.)"},
      {"sequence": "TTTTTTCTACTACCTCCGTTCCATATTATTTGTCGTTTTGCGGAGTCACCTAGTGCAG", "binding signal": "15700 fluorescence intensity (a.u.)"},
      {"sequence": "ACCGATCGCTCGCTCGCTTCCCGCGATCTCGCCTCCGAGACGGAGTCACCTAGTGCAG", "binding signal": "9230 fluorescence intensity (a.u.)"},
      {"sequence": "ACGCTTTCCTACTAGGCTTACGTAACATGTTGATCTACTACGGAGTCACCTAGTGCAG", "binding signal": "10400 fluorescence intensity (a.u.)"},
      {"sequence": "CTCCATCTGCGTATTTTCCAACACATCTCTCTTGCAGTTCCGGAGTCACCTAGTGCAG", "binding signal": "9550 fluorescence intensity (a.u.)"},
      {"sequence": "CTTGCATCCGTCCTCATCGGCACGAAAGTATATTCTTTATCGGAGTCACCTAGTGCAG", "binding signal": "9860 fluorescence intensity (a.u.)"},
      {"sequence": "CTTACACACACAAACTTTCAACTTTTCCGTCACATCGTTCCGGAGTCACCTAGTGCAG", "binding signal": "9240 fluorescence intensity (a.u.)"},
      {"sequence": "GTTAGACATATGTTTAAAAGTCAACGATGTTATCTATTAACGGAGTCACCTAGTGCAG", "binding signal": "9360 fluorescence intensity (a.u.)"},
      {"sequence": "GTCGGCACCTTTGCCTCATTTTTATTGCTGCCGGTTCTAACGGAGTCACCTAGTGCAG", "binding signal": "8800 fluorescence intensity (a.u.)"},
      {"sequence": "ATTCTTCTTGGGTTAAAATTGTTACTATTTTTTTCTACAACGGAGTCACCTAGTGCAG", "binding signal": "10000 fluorescence intensity (a.u.)"},
      {"sequence": "AAAACAATTTGGTAATGTCTGGCATGTTTATCCTCCTATACGGAGTCACCTAGTGCAG", "binding signal": "8270 fluorescence intensity (a.u.)"}
    ]}
  ]
}
